Paper PMC7979541
These are yes or no findings as the source states them, for the method shown. Binding seen in cells or lysates may run through a third protein. Some binding calls cover weakened binding; strength is not graded here. For part of these data: Where a sequence is shown, tags or fusion partners need not be part of it. One block for each binder: values may come before it.

Chains of the proteins cited; added tags and fusions are not shown.
UniProt Q07820: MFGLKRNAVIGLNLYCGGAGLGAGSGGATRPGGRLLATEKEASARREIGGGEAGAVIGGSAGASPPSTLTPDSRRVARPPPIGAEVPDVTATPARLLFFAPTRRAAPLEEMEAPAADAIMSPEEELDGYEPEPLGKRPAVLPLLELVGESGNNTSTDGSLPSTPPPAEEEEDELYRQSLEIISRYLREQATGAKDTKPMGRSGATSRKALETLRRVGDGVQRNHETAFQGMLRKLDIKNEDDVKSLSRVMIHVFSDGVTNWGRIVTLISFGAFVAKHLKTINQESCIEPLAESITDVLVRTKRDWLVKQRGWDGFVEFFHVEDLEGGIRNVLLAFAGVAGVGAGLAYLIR

Columns and labels:
[1] = biological target: V5-hMcl-1 (human), Q07820; test: co-IP; HEK293T cells transfected with V5-Mcl-1, FLAG-USP13 or both; 10 µM MG132 for 6 h; immunoprecipitation with anti-FLAG or anti-V5 antibody, A/G agarose beads, 4 °C overnight; western blot; conditions: remark: other sources report otherwise
[2] = biological target: endogenous Mcl-1 (human (endogenous in HeLa and SiHa)), Q07820; test: co-IP; endogenous proteins in HeLa and SiHa lysates after 10 µM MG132; immunoprecipitation with anti-USP13 or anti-Mcl-1 antibody; western blot; conditions: remark: other sources report otherwise
V5-hMcl-1 (human) = V5-hMcl-1 (human) (UniProt Q07820); test: co-IP; HEK293T cells co-transfected with V5-Mcl-1, HA-Ubiquitin and FLAG-USP13 (C345A); MG132; V5-Mcl-1 immunoprecipitated (anti-V5 by the text, anti-Mcl-1 by the legend); western blot (Fig. 5C; Supplementary Fig. 6)

binding [1]: binds
B1: FLAG-USP13, Q92995 1-863 (enzyme)
chain: MQRRGALFGMPGGSGGRKMAAGDIGELLVPHMPTIRVPRSGDRVYKNECAFSYDSPNSEGGLYVCMNTFLAFGREHVERHFRKTGQSVYMHLKRHVREKVRGASGGALPKRRNSKIFLDLDTDDDLNSDDYEYEDEAKLVIFPDHYEIALPNIEELPALVTIACDAVLSSKSPYRKQDPDTWENELPVSKYANNLTQLDNGVRIPPSGWKCARCDLRENLWLNLTDGSVLCGKWFFDSSGGNGHALEHYRDMGYPLAVKLGTITPDGADVYSFQEEEPVLDPHLAKHLAHFGIDMLHMHGTENGLQDNDIKLRVSEWEVIQESGTKLKPMYGPGYTGLKNLGNSCYLSSVMQAIFSIPEFQRAYVGNLPRIFDYSPLDPTQDFNTQMTKLGHGLLSGQYSKPPVKSELIEQVMKEEHKPQQNGISPRMFKAFVSKSHPEFSSNRQQDAQEFFLHLVNLVERNRIGSENPSDVFRFLVEERIQCCQTRKVRYTERVDYLMQLPVAMEAATNKDELIAYELTRREAEANRRPLPELVRAKIPFSACLQAFSEPENVDDFWSSALQAKSAGVKTSRFASFPEYLVVQIKKFTFGLDWVPKKFDVSIDMPDLLDINHLRARGLQPGEEELPDISPPIVIPDDSKDRLMNQLIDPSDIDESSVMQLAEMGFPLEACRKAVYFTGNMGAEVAFNWIIVHMEEPDFAEPLTMPGYGGAASAGASVFGASGLDNQPPEEIVAIITSMGFQRNQAIQALRATNNNLERALDWIFSHPEFEEDSDFVIEMENNANANIISEAKPEGPRVKDGSGTYELFAFISHMGTSTMSGHYICHIKKEGRWVIYNDHKVCASERPPKDLGYMYFYRRIPS

binding [2]: binds
B2: endogenous USP13, Q92995 1-863 (enzyme)
chain: MQRRGALFGMPGGSGGRKMAAGDIGELLVPHMPTIRVPRSGDRVYKNECAFSYDSPNSEGGLYVCMNTFLAFGREHVERHFRKTGQSVYMHLKRHVREKVRGASGGALPKRRNSKIFLDLDTDDDLNSDDYEYEDEAKLVIFPDHYEIALPNIEELPALVTIACDAVLSSKSPYRKQDPDTWENELPVSKYANNLTQLDNGVRIPPSGWKCARCDLRENLWLNLTDGSVLCGKWFFDSSGGNGHALEHYRDMGYPLAVKLGTITPDGADVYSFQEEEPVLDPHLAKHLAHFGIDMLHMHGTENGLQDNDIKLRVSEWEVIQESGTKLKPMYGPGYTGLKNLGNSCYLSSVMQAIFSIPEFQRAYVGNLPRIFDYSPLDPTQDFNTQMTKLGHGLLSGQYSKPPVKSELIEQVMKEEHKPQQNGISPRMFKAFVSKSHPEFSSNRQQDAQEFFLHLVNLVERNRIGSENPSDVFRFLVEERIQCCQTRKVRYTERVDYLMQLPVAMEAATNKDELIAYELTRREAEANRRPLPELVRAKIPFSACLQAFSEPENVDDFWSSALQAKSAGVKTSRFASFPEYLVVQIKKFTFGLDWVPKKFDVSIDMPDLLDINHLRARGLQPGEEELPDISPPIVIPDDSKDRLMNQLIDPSDIDESSVMQLAEMGFPLEACRKAVYFTGNMGAEVAFNWIIVHMEEPDFAEPLTMPGYGGAASAGASVFGASGLDNQPPEEIVAIITSMGFQRNQAIQALRATNNNLERALDWIFSHPEFEEDSDFVIEMENNANANIISEAKPEGPRVKDGSGTYELFAFISHMGTSTMSGHYICHIKKEGRWVIYNDHKVCASERPPKDLGYMYFYRRIPS

binding (V5-hMcl-1 (human)): binds
B3: FLAG-USP13 (C345A) (enzyme, UniProt Q92995 1-863)
chain: MQRRGALFGMPGGSGGRKMAAGDIGELLVPHMPTIRVPRSGDRVYKNECAFSYDSPNSEGGLYVCMNTFLAFGREHVERHFRKTGQSVYMHLKRHVREKVRGASGGALPKRRNSKIFLDLDTDDDLNSDDYEYEDEAKLVIFPDHYEIALPNIEELPALVTIACDAVLSSKSPYRKQDPDTWENELPVSKYANNLTQLDNGVRIPPSGWKCARCDLRENLWLNLTDGSVLCGKWFFDSSGGNGHALEHYRDMGYPLAVKLGTITPDGADVYSFQEEEPVLDPHLAKHLAHFGIDMLHMHGTENGLQDNDIKLRVSEWEVIQESGTKLKPMYGPGYTGLKNLGNSAYLSSVMQAIFSIPEFQRAYVGNLPRIFDYSPLDPTQDFNTQMTKLGHGLLSGQYSKPPVKSELIEQVMKEEHKPQQNGISPRMFKAFVSKSHPEFSSNRQQDAQEFFLHLVNLVERNRIGSENPSDVFRFLVEERIQCCQTRKVRYTERVDYLMQLPVAMEAATNKDELIAYELTRREAEANRRPLPELVRAKIPFSACLQAFSEPENVDDFWSSALQAKSAGVKTSRFASFPEYLVVQIKKFTFGLDWVPKKFDVSIDMPDLLDINHLRARGLQPGEEELPDISPPIVIPDDSKDRLMNQLIDPSDIDESSVMQLAEMGFPLEACRKAVYFTGNMGAEVAFNWIIVHMEEPDFAEPLTMPGYGGAASAGASVFGASGLDNQPPEEIVAIITSMGFQRNQAIQALRATNNNLERALDWIFSHPEFEEDSDFVIEMENNANANIISEAKPEGPRVKDGSGTYELFAFISHMGTSTMSGHYICHIKKEGRWVIYNDHKVCASERPPKDLGYMYFYRRIPS
